One substance from paper PMC9894554 can be followed below.

By UniProt entry, the sequences of proteins in these tests, tags left out. Residues count along the entry.
UniProt Q7TFA0, residues 16-39: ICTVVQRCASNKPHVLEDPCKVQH

Results are given in words; binding and its absence hold for the method and conditions named. In cells and extracts the contact can be indirect. Some results given as binding are weak or reduced against the parent protein; the word gives no strength.

The target in this experiment is T1, interleukin 17 receptor A (human (endogenous in THP-1)) (UniProt Q96F46).
T1 sequence: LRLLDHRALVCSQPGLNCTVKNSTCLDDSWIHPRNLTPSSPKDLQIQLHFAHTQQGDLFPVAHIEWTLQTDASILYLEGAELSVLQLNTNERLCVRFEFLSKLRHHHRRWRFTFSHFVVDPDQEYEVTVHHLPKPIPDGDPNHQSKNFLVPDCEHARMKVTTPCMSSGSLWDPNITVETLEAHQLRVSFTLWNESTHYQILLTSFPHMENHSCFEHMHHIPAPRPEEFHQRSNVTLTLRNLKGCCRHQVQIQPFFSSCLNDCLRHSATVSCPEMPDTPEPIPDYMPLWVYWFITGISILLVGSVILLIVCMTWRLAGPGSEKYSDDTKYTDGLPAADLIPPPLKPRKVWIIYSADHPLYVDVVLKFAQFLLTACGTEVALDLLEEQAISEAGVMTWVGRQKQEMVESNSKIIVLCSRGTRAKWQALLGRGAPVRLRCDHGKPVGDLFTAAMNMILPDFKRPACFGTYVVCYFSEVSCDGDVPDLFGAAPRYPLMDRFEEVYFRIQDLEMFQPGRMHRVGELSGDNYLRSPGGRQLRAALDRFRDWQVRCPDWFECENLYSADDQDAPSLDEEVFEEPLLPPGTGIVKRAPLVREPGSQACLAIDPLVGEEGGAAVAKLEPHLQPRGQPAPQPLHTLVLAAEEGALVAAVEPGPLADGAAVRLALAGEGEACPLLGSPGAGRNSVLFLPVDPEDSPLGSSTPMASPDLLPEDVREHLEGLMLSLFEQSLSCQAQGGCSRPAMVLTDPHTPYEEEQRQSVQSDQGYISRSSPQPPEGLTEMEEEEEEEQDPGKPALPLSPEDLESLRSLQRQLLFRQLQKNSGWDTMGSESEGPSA
Nature of the experiment: co-IP; only the binder purified.

With “Flag-tagged SARS-CoV ORF8a secreted by transfected Calu-3 cells (from UniProt Q7TFA0 16-39)”, the binding entry was “binds”.
